In doi:10.1101/2023.04.27.538541:
These are yes or no findings as the source states them, for the method shown. Some binding calls cover weakened binding; strength is not graded here.

Sequences of proteins named here, by UniProt entry; tags and fusion partners are left off. A change or cut given only in a name is not applied to a line headed by its entry.
UniProt Q6NZQ4: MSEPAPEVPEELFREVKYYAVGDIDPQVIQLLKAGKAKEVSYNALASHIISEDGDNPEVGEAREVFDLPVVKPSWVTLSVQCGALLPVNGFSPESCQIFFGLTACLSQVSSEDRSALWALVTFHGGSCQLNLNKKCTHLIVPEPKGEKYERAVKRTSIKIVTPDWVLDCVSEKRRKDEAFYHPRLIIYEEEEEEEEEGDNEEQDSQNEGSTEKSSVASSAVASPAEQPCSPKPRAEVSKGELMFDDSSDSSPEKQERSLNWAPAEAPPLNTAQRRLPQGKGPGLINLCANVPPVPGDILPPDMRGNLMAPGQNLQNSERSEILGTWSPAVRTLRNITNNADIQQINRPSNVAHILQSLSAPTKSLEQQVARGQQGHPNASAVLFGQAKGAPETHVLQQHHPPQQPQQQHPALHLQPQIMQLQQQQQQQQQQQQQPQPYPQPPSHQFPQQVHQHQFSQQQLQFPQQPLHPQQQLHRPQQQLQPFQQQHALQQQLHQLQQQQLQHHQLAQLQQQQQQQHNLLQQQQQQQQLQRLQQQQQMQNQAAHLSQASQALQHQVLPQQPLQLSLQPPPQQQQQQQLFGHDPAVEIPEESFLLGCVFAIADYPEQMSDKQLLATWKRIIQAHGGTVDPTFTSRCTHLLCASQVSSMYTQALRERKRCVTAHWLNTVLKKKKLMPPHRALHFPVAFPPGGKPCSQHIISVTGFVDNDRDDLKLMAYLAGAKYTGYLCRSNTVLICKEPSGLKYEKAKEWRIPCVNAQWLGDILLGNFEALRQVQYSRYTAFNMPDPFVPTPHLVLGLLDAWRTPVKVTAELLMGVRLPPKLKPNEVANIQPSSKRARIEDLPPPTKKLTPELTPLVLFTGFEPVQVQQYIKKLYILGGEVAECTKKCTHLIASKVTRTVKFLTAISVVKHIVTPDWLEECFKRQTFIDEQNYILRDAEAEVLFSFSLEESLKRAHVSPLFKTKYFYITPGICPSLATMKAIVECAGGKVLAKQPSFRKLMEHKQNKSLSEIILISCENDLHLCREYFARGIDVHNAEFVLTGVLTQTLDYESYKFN
UniProt A0A140LI88: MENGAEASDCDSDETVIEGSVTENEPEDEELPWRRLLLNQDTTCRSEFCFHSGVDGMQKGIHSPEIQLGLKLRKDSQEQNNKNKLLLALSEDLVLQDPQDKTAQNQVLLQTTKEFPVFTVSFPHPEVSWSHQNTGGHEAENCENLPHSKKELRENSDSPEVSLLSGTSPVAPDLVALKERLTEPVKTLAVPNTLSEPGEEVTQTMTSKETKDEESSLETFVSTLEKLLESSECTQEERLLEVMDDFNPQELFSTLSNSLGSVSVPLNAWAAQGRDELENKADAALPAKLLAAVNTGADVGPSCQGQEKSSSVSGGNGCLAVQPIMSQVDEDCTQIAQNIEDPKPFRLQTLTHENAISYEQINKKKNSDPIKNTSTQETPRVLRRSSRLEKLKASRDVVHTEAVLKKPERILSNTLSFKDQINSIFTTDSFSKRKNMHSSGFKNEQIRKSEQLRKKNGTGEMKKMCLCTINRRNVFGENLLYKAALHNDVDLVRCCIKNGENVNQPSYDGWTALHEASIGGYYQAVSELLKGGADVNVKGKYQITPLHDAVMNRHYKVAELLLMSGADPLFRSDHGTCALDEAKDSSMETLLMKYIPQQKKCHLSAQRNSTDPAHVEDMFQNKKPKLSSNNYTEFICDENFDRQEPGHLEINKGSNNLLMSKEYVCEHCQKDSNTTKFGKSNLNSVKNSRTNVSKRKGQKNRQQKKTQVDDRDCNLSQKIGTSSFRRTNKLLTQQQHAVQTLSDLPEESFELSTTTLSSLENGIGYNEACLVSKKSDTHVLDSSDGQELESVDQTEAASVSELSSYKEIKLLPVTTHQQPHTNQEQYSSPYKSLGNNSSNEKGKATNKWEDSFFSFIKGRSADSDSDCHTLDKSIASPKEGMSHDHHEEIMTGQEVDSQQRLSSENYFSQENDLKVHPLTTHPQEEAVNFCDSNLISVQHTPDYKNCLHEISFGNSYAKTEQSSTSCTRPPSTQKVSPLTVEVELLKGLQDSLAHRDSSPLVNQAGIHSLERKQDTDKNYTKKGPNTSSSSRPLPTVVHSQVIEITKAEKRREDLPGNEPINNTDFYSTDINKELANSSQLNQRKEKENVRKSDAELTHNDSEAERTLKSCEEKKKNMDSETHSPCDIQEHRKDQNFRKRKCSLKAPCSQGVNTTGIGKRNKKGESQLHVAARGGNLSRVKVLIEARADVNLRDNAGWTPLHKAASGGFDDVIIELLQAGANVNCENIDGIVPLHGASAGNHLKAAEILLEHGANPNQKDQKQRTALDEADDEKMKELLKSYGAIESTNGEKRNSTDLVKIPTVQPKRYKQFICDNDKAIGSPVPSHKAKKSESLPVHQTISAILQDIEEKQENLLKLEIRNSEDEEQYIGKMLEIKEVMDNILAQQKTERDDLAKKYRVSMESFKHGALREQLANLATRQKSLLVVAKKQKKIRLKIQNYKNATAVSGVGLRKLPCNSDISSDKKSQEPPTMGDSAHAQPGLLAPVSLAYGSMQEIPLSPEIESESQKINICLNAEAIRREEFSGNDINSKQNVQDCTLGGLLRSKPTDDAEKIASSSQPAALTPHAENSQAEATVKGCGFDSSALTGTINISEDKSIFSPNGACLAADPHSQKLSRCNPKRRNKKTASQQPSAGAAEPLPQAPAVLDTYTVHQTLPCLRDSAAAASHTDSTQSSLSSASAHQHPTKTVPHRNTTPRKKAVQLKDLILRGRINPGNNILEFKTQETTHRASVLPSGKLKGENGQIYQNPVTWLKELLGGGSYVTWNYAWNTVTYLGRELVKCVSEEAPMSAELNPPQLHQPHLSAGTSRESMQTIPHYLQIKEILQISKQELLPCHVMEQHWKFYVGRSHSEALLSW

What was measured:
Assay in all cases: two-hybrid; Gal4 AD and BD fusions (pGADT7, pGBKT7); mating of Y187 and Y2HGold strains; selection on SD-Trp/Leu/AbA (200 ng/ml Aureobasidin A; moderate stringency) or SD-Trp/Leu/Ade/His/AbA (high stringency)
[1] = target: T1, REC114N (N-terminal part of REC114) (mouse) (UniProt Q9CWH4)
T1 sequence: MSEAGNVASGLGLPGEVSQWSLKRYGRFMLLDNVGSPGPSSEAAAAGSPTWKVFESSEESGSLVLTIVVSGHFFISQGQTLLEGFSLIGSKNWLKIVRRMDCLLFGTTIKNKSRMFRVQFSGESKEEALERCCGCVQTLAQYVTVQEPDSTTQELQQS

PTIP (mouse) = PTIP (mouse) (UniProt Q6NZQ4)
MEI1 (mouse) = target: T2, MEI1 (mouse) (UniProt Q9D4I2)
T2 sequence: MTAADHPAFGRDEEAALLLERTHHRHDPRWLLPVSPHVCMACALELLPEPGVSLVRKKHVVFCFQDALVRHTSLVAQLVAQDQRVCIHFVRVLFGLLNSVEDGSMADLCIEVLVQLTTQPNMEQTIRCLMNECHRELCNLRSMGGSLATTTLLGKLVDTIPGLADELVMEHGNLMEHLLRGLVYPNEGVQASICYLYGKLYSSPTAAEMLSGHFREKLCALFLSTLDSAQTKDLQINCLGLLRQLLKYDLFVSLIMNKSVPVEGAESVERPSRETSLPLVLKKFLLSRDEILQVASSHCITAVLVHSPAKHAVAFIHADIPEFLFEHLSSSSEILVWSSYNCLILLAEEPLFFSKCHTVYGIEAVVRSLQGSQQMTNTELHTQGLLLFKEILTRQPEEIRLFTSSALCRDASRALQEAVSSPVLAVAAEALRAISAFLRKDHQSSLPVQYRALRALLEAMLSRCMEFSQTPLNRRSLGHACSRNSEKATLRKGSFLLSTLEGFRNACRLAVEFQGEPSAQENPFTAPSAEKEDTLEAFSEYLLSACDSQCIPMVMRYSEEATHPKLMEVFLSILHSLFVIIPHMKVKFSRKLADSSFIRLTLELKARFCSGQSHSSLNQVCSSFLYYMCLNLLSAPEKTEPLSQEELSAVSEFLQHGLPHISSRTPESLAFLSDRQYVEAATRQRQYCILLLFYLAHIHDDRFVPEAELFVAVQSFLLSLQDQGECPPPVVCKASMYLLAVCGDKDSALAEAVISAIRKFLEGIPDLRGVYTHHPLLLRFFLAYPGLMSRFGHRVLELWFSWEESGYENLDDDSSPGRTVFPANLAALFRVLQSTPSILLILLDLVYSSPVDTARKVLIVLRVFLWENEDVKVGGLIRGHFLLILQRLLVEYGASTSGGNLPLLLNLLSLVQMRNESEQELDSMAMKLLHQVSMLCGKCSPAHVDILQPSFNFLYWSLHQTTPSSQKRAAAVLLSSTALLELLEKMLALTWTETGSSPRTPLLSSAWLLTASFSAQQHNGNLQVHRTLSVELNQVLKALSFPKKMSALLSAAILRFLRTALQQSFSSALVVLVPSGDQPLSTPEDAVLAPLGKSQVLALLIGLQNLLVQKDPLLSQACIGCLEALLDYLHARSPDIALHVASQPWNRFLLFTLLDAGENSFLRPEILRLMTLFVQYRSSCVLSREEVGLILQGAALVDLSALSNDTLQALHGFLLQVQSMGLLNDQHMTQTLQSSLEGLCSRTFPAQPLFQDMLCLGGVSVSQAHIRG

ZMYM3 (mouse) = target: T3, ZMYM3 (mouse) (UniProt Q9JLM4)
T3 sequence: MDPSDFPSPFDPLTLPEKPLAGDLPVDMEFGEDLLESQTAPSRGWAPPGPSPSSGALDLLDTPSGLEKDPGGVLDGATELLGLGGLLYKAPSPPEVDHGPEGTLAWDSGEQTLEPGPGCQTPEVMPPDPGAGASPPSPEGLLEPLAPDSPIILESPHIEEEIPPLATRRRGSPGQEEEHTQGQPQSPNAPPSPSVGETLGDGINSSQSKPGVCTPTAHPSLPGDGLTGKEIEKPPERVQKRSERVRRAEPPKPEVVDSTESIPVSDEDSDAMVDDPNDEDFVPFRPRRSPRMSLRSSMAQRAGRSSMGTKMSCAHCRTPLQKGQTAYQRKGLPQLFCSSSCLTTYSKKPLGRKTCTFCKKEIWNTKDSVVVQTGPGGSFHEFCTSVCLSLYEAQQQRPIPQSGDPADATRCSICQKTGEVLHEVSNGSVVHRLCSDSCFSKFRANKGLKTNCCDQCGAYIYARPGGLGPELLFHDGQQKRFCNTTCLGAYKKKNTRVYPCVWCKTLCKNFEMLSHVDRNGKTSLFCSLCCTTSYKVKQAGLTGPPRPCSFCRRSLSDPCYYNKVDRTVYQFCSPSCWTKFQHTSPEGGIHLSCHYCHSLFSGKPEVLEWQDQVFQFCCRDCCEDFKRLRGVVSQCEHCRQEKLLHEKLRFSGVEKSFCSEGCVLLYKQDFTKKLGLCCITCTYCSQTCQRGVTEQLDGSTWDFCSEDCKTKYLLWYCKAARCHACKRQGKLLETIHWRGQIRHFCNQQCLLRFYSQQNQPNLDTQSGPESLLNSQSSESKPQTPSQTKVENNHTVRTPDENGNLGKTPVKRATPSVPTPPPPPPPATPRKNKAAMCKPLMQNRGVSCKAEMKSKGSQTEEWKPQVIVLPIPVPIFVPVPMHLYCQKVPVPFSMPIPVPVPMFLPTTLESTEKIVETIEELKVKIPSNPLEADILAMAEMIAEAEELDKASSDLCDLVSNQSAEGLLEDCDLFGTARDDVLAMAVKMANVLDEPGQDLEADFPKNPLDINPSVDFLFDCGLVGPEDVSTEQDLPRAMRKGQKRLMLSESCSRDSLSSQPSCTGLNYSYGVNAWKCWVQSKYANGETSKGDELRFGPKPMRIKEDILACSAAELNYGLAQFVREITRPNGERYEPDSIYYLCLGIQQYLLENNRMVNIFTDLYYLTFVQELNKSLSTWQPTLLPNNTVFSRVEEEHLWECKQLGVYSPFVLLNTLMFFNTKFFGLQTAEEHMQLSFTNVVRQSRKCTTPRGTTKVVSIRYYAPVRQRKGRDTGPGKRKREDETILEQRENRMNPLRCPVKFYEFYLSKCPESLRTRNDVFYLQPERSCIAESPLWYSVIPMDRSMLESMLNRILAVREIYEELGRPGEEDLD

REC114 1-145 (mouse) = target: T4, REC114 1-145 (mouse) (UniProt Q9CWH4)
T4 sequence: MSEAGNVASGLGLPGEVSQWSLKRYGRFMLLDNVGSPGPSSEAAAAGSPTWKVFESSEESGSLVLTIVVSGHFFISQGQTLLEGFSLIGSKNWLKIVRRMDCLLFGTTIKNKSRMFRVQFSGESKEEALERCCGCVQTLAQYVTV

Measured: binding

ANKRD31 (Ankyrin Repeat Domain Containing 31), full-length wild type (from UniProt A0A140LI88 1-1857)
not listed: REC114 1-145 (mouse)
binds: all other assays above

ANKRD31-EA (full-length ANKRD31 with E1831A) (from UniProt A0A140LI88 1-1857)
not listed: REC114 1-145 (mouse)
binds: all other assays above

ANKRD31C (ANKRD31 residues 1808-1857) (from UniProt A0A140LI88 1808-1857) (domain or fragment)
binds: REC114 1-145 (mouse)
